No constants are given. Whether binding was seen depends on the method and setting. Some binding calls cover weakened binding; strength is not graded here.

By UniProt entry, the sequences of proteins in these tests, tags left out. Residues count along the entry.
UniProt P0AE72: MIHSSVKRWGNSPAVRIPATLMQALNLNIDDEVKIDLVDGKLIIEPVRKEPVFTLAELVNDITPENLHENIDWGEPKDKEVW
UniProt P0AE70, residues 2-111: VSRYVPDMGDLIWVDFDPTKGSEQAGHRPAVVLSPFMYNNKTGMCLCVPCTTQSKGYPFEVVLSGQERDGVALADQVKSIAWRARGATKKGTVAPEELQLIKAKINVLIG

From paper PMC7590665 come the findings set out here.

The assay deals with MazE antitoxin (E. coli) (UniProt P0AE72). Put plainly: co-purification.

Take MazF toxin (from UniProt P0AE70 2-111): the binding entry was “binds”.
